Weaker means in comparison with the reference protein, sequence or condition of that experiment.
What was measured:
Assay in all cases: ITC
Conditions in all cases: Kd printed only in figure; ITC: 20 mM Tris-HCl pH 7.5, 100 mM NaCl, 25 C; 0.03-0.05 mM protein in cell, 0.26-0.5 mM RNA in syringe, single-site model; recombinant protein; residues 14-111; protein details: 6His-SUMO removed with Ulp1
[1] = molecular target: RBPMS RRM R38A/E39A (human) (UniProt Q93062)
[2] = molecular target: RBPMS RRM K36E/R38E (human) (UniProt Q93062)
RBPMS RRM R38Q (human) = RBPMS RRM R38Q (human) (UniProt Q93062)

The chains behind the UniProt entries cited, without tags or fusion partners. Residues count along the entry.
UniProt Q93062, 14-111 R38A/E39A: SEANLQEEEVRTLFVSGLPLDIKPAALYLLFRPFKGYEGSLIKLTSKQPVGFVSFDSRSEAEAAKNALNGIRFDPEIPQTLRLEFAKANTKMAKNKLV
UniProt Q93062, 14-111 K36E/R38E: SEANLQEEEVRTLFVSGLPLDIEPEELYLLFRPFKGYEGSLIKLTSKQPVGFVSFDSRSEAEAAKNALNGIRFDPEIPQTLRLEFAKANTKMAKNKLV
UniProt Q93062, 14-111 R38Q: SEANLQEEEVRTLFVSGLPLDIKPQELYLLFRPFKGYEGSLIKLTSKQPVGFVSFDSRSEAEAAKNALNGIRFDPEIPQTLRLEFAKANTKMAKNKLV

Measured: binding result

GCACUUUCAACUUCACU [ETF1 17-nt RNA]
binds more weakly: all assays above
